The chains behind the UniProt entries cited, without tags or fusion partners.
UniProt P09874: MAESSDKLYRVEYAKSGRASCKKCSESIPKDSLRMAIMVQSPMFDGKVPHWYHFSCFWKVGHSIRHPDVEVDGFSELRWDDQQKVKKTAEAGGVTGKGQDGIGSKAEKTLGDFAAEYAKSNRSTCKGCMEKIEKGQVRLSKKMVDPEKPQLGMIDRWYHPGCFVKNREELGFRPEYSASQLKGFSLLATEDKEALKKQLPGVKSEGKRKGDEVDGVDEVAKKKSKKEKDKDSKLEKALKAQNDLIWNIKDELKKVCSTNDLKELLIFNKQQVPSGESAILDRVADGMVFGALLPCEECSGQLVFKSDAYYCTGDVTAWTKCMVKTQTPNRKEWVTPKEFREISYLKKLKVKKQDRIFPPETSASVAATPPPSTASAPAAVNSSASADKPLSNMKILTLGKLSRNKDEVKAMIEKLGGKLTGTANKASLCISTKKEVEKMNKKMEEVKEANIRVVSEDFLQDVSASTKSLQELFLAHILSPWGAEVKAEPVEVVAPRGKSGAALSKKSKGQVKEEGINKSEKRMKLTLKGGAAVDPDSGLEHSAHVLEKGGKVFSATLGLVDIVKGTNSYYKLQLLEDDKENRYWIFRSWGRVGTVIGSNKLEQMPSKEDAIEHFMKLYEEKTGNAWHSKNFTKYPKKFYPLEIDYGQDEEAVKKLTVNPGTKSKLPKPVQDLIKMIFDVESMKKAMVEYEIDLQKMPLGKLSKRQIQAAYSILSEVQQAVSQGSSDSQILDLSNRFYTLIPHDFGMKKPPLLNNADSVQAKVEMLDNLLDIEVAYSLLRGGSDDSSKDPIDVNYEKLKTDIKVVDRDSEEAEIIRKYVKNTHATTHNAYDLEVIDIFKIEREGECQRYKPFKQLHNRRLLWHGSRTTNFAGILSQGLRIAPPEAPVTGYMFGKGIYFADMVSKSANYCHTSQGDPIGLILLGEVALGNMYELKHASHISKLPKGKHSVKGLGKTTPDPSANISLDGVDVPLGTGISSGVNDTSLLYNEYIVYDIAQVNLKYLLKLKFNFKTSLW
UniProt P54725: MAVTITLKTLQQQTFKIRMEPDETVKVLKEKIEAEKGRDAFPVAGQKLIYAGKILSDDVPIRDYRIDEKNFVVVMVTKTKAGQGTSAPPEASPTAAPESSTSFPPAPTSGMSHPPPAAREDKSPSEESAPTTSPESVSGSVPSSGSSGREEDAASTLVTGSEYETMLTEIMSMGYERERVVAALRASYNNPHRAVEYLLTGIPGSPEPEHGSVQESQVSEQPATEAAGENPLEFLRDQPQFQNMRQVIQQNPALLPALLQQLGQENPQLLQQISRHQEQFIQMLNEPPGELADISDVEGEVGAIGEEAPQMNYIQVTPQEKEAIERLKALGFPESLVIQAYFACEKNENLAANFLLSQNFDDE
UniProt P12004: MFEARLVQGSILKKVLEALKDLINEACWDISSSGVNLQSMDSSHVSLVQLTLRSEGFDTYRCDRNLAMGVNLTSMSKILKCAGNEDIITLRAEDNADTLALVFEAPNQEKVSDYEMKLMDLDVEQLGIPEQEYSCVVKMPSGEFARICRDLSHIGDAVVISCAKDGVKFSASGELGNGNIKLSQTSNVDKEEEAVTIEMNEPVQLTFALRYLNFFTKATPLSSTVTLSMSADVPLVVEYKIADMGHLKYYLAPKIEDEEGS
UniProt P54727: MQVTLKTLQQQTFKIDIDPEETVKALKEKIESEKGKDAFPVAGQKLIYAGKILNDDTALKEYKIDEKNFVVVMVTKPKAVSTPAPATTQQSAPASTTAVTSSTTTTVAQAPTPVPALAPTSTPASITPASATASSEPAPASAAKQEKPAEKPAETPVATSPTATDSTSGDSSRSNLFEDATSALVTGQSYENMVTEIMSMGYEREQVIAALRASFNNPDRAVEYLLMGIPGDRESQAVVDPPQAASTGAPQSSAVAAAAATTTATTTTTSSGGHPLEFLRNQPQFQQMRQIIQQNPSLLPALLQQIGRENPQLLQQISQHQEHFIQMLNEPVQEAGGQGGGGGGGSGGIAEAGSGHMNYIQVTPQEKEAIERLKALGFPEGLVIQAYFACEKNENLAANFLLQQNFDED
UniProt P78527: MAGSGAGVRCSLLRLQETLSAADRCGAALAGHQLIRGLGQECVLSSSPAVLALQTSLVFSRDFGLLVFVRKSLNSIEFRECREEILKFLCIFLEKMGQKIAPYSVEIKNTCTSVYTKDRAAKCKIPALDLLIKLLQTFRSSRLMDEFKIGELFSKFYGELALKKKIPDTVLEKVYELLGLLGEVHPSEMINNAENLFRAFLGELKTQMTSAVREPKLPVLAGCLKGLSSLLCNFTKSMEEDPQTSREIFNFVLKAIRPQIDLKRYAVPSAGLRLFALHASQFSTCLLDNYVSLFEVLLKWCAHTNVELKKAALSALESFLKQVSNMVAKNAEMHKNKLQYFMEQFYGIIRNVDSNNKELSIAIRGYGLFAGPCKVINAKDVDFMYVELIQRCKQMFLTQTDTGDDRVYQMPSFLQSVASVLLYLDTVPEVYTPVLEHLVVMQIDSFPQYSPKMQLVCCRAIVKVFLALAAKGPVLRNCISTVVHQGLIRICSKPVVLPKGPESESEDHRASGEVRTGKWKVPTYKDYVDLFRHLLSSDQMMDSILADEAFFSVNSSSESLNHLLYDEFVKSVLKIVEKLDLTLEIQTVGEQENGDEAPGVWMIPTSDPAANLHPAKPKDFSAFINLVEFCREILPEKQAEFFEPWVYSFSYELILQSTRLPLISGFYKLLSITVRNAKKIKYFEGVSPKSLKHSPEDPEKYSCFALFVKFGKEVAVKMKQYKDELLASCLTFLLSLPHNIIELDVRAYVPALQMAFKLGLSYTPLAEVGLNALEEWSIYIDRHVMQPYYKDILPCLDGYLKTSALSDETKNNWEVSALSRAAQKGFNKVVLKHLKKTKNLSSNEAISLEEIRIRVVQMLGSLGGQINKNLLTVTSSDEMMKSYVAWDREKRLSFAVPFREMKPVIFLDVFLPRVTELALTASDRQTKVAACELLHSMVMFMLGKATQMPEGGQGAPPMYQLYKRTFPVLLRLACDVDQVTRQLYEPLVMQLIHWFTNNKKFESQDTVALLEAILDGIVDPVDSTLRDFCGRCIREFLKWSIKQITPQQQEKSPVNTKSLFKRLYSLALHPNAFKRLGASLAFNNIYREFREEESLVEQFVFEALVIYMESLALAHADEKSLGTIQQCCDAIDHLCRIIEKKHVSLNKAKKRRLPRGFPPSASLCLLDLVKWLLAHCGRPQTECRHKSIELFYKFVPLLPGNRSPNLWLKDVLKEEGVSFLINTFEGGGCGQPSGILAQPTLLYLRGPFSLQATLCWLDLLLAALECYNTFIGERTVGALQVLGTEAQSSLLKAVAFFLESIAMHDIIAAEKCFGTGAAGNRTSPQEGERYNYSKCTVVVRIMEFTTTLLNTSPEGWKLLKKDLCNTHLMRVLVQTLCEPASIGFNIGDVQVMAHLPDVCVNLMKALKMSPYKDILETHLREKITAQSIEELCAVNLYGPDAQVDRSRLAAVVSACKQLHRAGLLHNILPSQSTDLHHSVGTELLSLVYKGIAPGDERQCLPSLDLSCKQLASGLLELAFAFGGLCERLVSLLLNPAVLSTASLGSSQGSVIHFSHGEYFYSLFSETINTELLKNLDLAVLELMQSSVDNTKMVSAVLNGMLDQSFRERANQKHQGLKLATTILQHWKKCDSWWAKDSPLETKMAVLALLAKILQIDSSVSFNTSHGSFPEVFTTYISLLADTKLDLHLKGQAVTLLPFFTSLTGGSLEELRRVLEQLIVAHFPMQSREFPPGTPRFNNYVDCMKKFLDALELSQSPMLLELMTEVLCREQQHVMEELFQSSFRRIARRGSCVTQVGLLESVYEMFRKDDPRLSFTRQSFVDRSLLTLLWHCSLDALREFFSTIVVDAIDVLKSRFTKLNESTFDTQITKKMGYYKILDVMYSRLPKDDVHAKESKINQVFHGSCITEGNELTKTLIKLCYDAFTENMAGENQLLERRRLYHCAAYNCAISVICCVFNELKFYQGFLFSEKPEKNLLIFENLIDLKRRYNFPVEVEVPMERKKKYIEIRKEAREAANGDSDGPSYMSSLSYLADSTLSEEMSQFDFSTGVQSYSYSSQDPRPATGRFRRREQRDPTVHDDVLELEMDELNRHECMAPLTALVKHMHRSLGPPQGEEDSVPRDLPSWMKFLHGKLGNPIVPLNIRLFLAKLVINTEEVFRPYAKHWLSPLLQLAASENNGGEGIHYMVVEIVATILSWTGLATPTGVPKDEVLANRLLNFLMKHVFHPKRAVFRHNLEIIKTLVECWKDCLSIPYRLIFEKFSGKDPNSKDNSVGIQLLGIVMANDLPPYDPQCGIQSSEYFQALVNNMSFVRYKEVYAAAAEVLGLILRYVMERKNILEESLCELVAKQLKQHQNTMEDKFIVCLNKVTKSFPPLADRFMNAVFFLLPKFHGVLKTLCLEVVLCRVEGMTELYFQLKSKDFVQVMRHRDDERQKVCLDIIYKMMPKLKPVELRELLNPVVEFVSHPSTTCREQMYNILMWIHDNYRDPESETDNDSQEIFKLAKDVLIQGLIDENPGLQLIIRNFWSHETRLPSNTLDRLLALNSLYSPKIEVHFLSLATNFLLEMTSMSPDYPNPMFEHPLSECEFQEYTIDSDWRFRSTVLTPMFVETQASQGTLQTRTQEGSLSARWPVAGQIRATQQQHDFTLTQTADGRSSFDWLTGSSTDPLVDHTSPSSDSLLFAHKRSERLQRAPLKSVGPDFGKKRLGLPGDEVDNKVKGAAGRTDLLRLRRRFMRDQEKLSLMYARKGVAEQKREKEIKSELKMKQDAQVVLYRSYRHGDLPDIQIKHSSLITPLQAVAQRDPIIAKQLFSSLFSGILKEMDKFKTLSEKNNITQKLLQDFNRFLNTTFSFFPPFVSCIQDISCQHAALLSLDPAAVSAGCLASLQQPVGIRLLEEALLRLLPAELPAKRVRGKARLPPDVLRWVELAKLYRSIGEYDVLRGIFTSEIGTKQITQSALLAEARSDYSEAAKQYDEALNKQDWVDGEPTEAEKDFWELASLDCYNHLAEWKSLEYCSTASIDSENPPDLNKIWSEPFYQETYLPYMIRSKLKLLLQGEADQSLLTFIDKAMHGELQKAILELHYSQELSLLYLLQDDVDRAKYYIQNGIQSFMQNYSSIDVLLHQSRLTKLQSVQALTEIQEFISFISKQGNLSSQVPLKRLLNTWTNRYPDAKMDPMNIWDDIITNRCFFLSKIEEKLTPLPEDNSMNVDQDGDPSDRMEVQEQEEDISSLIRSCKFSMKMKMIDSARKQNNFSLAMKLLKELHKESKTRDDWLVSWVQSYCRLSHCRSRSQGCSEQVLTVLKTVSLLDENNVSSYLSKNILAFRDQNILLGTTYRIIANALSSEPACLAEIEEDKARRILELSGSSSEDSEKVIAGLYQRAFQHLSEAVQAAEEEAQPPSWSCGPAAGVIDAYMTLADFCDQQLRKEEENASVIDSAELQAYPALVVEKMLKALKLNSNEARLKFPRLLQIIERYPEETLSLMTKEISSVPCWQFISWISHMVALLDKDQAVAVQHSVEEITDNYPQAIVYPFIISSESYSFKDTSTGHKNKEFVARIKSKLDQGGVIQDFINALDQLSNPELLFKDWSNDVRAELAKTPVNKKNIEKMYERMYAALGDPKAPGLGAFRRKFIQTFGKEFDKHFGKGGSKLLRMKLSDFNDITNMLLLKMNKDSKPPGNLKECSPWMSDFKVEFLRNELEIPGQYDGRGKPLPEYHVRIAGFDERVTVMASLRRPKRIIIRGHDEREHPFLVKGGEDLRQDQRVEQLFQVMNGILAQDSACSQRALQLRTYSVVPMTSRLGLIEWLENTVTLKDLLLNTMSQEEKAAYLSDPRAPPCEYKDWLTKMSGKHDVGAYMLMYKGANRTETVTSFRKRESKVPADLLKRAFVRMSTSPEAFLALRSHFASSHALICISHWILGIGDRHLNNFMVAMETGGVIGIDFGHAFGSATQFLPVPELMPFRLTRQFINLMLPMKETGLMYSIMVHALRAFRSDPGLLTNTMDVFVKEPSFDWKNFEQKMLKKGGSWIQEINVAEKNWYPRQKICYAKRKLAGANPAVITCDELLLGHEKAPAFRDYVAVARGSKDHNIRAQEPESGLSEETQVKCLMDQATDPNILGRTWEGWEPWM

According to article PMC12474859:

Target: 3x-Flag-tagged DNA2 (human) (UniProt P51530)
Test: affinity purification with mass spectrometry; 3x-Flag-DNA2 from transfected 293T extracts held on anti-Flag M2 magnetic beads overnight; IP buffer 50 mM HEPES-KOH pH 7.4, 150 mM NaCl, 0.1% NP40, 10% glycerol; one wash with 500 mM NaCl; eluted with 3x-Flag peptide; gel bands digested, LC/MS; enrichment relative to the empty vector control

binding, binds:
PARP1 (from UniProt P09874 1-1014) (enzyme)
RAD23A (from UniProt P54725 1-363)
PCNA (from UniProt P12004 1-261)
RAD23B (from UniProt P54727 1-409)
DNA-PK (from UniProt P78527 1-4128) (enzyme)

Results are given in words; binding and its absence hold for the method and conditions named. Binding seen in cells or lysates may run through a third protein. These calls come from enrichment with a bait or labelling near it, and not all partners need be listed. Where a sequence is shown, tags or fusion partners need not be part of it.
